Results deposited as PubChem BioAssay AID1259261 (Sanger Institute, 2017).
In all, the deposit lists 794 reagents; shown is a random part of them. In the full data, 10 (1.3%) were called active. 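Calls reflect knock-down alone without drug; synergy scores with BYL719, cetuximab or trametinib do not affect calls.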 No viability above 1 is reported: the scale is capped. Further read-outs or replicates are left out here. Not given: the amount of reagent, the time to read-out.

Assay: 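Kinase knock-downs that kill colorectal cancer cells or boost targeted drugs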 (primary screen)
System: HCC2998 human colorectal cancer cells
Reagents: siRNA pool against human genes
Conditions: anchor drugs BYL719 1 µM, cetuximab 5 µg/ml or trametinib 10 nM, each compared with DMSO vehicle
Detection: 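Cell viability relative to non-targeting siRNA, averaged over replicates, with robust z-score for siRNA alone and synergy scores with each anchor drug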
Scale: viability z-score, knock-down alone: higher = more viable cells than controls; viability fraction, knock-down alone: higher = more viable cells
Hit rule: 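a knock-down is called essential if its robust z-score without drug is under -3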
Meaning of the calls: active = essential; inactive = no change

{"target gene": "ARID1A (AT-rich interaction domain 1A)", "viability z-score, knock-down alone": -1.29, "viability fraction, knock-down alone": 0.687, "Outcome": "inactive"}
{"target gene": "TNK1 (tyrosine kinase non receptor 1)", "viability z-score, knock-down alone": 1.04, "viability fraction, knock-down alone": 0.979, "Outcome": "inactive"}
{"target gene": "MET (MET proto-oncogene, receptor tyrosine kinase)", "viability z-score, knock-down alone": 0.353, "viability fraction, knock-down alone": 0.893, "Outcome": "inactive"}
{"target gene": "HK1 (hexokinase 1)", "viability z-score, knock-down alone": 1.21, "viability fraction, knock-down alone": 1, "Outcome": "inactive"}
{"target gene": "CDK4 (cyclin dependent kinase 4)", "viability z-score, knock-down alone": 0.95, "viability fraction, knock-down alone": 0.968, "Outcome": "inactive"}
{"target gene": "CDKN2D (cyclin dependent kinase inhibitor 2D)", "viability z-score, knock-down alone": -0.527, "viability fraction, knock-down alone": 0.783, "Outcome": "inactive"}
{"target gene": "PRPS2 (phosphoribosyl pyrophosphate synthetase 2)", "viability z-score, knock-down alone": -0.138, "viability fraction, knock-down alone": 0.832, "Outcome": "inactive"}
{"target gene": "GRK4 (G protein-coupled receptor kinase 4)", "viability z-score, knock-down alone": 0.597, "viability fraction, knock-down alone": 0.924, "Outcome": "inactive"}
{"target gene": "RIPK4 (receptor interacting serine/threonine kinase 4)", "viability z-score, knock-down alone": 1.21, "viability fraction, knock-down alone": 1, "Outcome": "inactive"}
{"target gene": "PIK3C2G", "viability z-score, knock-down alone": -1.38, "viability fraction, knock-down alone": 0.676, "Outcome": "inactive"}
{"target gene": "BCOR (BCL6 corepressor)", "viability z-score, knock-down alone": -0.609, "viability fraction, knock-down alone": 0.773, "Outcome": "inactive"}
{"target gene": "NEK4 (NIMA related kinase 4)", "viability z-score, knock-down alone": -2.34, "viability fraction, knock-down alone": 0.556, "Outcome": "inactive"}

A portion taken from the entries so far, for reference:
{"target gene": "BCOR (BCL6 corepressor)", "viability z-score, knock-down alone": -0.609, "viability fraction, knock-down alone": 0.773, "Outcome": "inactive"}
{"target gene": "NEK4 (NIMA related kinase 4)", "viability z-score, knock-down alone": -2.34, "viability fraction, knock-down alone": 0.556, "Outcome": "inactive"}
